{"source": "PubChem BioAssay AID686937 (Drosophila RNAi Screening Center, 2013)", "screen": "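Genes whose loss weakens secretory pathway function in fly cells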 (primary screen)", "system": "Drosophila S2 cells expressing secreted horseradish peroxidase", "reagent": "long dsRNA against Drosophila genes", "duration": "about 5.5 days (5 days dsRNA, then 12 h reporter induction)", "challenge": "reporter expression induced after 5 days of dsRNA, read 12 h later; inducer not stated", "measurement": "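Chemiluminescent measurement of peroxidase in the medium 12 h after reporter induction, following 5 days of dsRNA, given as a z-score per plate; higher means more secretion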", "scale": "z-score: higher = more reporter secreted into medium", "note": "The screen tested about 23,000 reagents; below is an unselected part of those that have a named target and a result. 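Reduced-secretion tags in replicate 1 do not always agree with the z-scores; no criterion for assigning the tags was given.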 No sequences are given here. Not stated in the record: the amount of reagent."}
{"target": "CG15252 (GeneID 31931)", "DRSC id": "DRSC17981", "z-score, replicate 1": 0.4, "z-score, replicate 2": 0.39}
{"target": "isoQC (GeneID 40270)", "DRSC id": "DRSC11790", "z-score, replicate 1": 0.07, "z-score, replicate 2": 0.35}
{"target": "CG10512 (GeneID 40339)", "DRSC id": "DRSC11615", "z-score, replicate 1": 0.34, "z-score, replicate 2": 0.34}
{"target": "CG4045 (GeneID 31176)", "DRSC id": "DRSC18518", "z-score, replicate 1": 0.11, "z-score, replicate 2": 0.15}
{"target": "Sap47 (GeneID 41938)", "DRSC id": "DRSC16850", "z-score, replicate 1": 0.43, "z-score, replicate 2": 0.28}
{"target": "cv-d (GeneID 41921)", "DRSC id": "DRSC16522", "z-score, replicate 1": 0.13, "z-score, replicate 2": -0.02}
{"target": "cv-d (GeneID 41921)", "DRSC id": "DRSC16524", "z-score, replicate 1": -0.15, "z-score, replicate 2": -0.47}
{"target": "cv-d (GeneID 41921)", "DRSC id": "DRSC16526", "z-score, replicate 1": 0.3, "z-score, replicate 2": 0.29}
{"target": "CG16741 (GeneID 59232)", "DRSC id": "DRSC06622", "z-score, replicate 1": 0.48, "z-score, replicate 2": 0.22}
{"target": "CG4914 (GeneID 39597)", "DRSC id": "DRSC10458", "z-score, replicate 1": 0.24, "z-score, replicate 2": 0.2}

Continued; the last 2 above are carried over.
{"target": "CG16741 (GeneID 59232)", "DRSC id": "DRSC06622", "z-score, replicate 1": 0.48, "z-score, replicate 2": 0.22}
{"target": "CG4914 (GeneID 39597)", "DRSC id": "DRSC10458", "z-score, replicate 1": 0.24, "z-score, replicate 2": 0.2}
{"target": "CG17683 (GeneID 3355011)", "DRSC id": "DRSC21160", "z-score, replicate 1": -1.03, "z-score, replicate 2": -0.1}
{"target": "ppk16 (GeneID 3885612)", "DRSC id": "DRSC02736", "z-score, replicate 1": 0.51, "z-score, replicate 2": 0.27}
{"target": "Act88F (GeneID 41885)", "DRSC id": "DRSC14105", "z-score, replicate 1": -0.1, "z-score, replicate 2": -0.38}
{"target": "l(2)05287 (GeneID 35374)", "DRSC id": "DRSC02151", "z-score, replicate 1": 0.09, "z-score, replicate 2": 0.14}
{"target": "l(2)05287 (GeneID 35374)", "DRSC id": "DRSC02152", "z-score, replicate 1": -0.05, "z-score, replicate 2": -0.33}
{"target": "Ir76a (GeneID 40157)", "DRSC id": "DRSC10987", "z-score, replicate 1": 0.26, "z-score, replicate 2": 0.24}
